Values quoted from earlier work, collected in patent publication US20080138350A1, “PROCESS FOR USE OF FLUOROQUINOLONES TO REDUCE OR MODULATE INFLAMMATION DUE TO EYE DISEASE OR OPHTHALMIC SURGERY” (priority 2006, published 2008).
Values after ≈ are worked out from the molar mass of the structure shown. For at least one compound, name, drawing or mass did not settle the structure.

Legend:
[1] = system: fluoroquinolone resistant coagulase-negative Staphylococcus
[2] = system: resistant Staphylococcus aureus

For `COc1c(N2C[C@@H]3CCCN[C@@H]3C2)c(F)cc2c(=O)c(C(=O)O)cn(C3CC3)c12` [moxifloxacin], the “median MIC” value [1] is given as 2.5 µg/mL and the MIC [2] is given as 1.75 µg/mL (≈ 4.36 µM).
